The list shows a part of the results. Shown are side measurements of this screen, not its main read-out; they come without a call. Compounds called inactive in the main read-out are mostly missing here. Words in brackets tell the shape of the fitted curve; partial curves, single points and poor fits give uncertain potencies.

This assay is described as follows: qHTS Assay to Find Inhibitors of Chronic Active B-Cell Receptor Signaling. The conditions noted are these: ABC-DLBCL IkBa-CBG/CBR reporter, luminescence ratio (green luciferase fused to IkBa over red control in TMD8 lymphoma cells), 4 h; measured here: CBR red luminescence, cell number. Put shortly: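 Compounds up to 46 uM were incubated four hours with TMD8 cells whose green CBG68 luciferase is fused to IkappaBalpha; red CBR luminescence normalised the signal, and concentration-effect curves were fitted to fusion, red and ratio data.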
In the case of `CCC(=O)N/C(N)=N/c1nc2ccccc2o1`, the AC50 was 11.2 µM [falling, partial curve, poor fit].
Take `COc1ccc(C(=O)O)cc1NC(=S)NC(=O)/C=C/c1ccc(C(C)C)cc1`: the AC50 was 14.1 µM [falling, partial curve, poor fit].
With `O=C(NNC(=O)C1C2C=CC(C2)C1C(=O)O)c1cc(Cl)ccc1O` (stereo not drawn), the AC50 is 1.26 µM [falling, full curve].
The figure for `O=C(CSC(=S)N1CCSCC1)c1ccccc1` is 20 µM [falling, single point]; for `N#CC1=C(N)SC(N)=C(C#N)C1c1cccc(Oc2ccccc2)c1` it is 20.6 µM [falling, single point]; for `CCCC(=O)Nc1ccc(C(=O)n2nnc3ccccc32)cc1` it is 6.51 µM [falling, single point].
With `CCOC(=O)c1sc(NC(=O)C2CSC3(C)CCC(=O)N23)nc1C` (stereo not drawn), the AC50 was 2.59 µM [falling, partial curve, poor fit].
Take `O=C(O)CCN1C(=O)/C(=C\c2cccc(Oc3ccccc3)c2)SC1=S`: the AC50 is 2.51 µM [falling, partial curve, poor fit].
Consider `CC(Oc1ccc(F)cc1)C(=O)Nc1ccccc1C(=O)N1CCCCC1` (stereo not drawn), for which the AC50 was 10.3 µM [rising, partial curve].
Take `CCCC(=O)Nc1sc2c(c1C#N)CCCC2`: the AC50 is 29.1 µM [rising, single point].
On to `Cc1cc(N2CCN(c3ccccc3)CC2)nc(-n2nc(C)cc2C)n1`, for which the AC50 was 35.5 µM [rising, single point].
Consider `CCOC(=O)C1=C(N)OC2=C(C(=O)CC(C)(C)C2)C1c1ccc(C)s1` (stereo not drawn), for which the half-maximal activity concentration (AC50) is 15.8 µM [rising, single point].
As to `O=C(O)C1C(C(=O)Nc2ccc(Cl)cc2)C2C=CC1C21CC1` (stereo not drawn), the AC50 was 23.1 µM [rising, partial curve, poor fit].
In the case of `CC1C/C(=C/c2ccccn2)C(=O)/C(=C/c2ccccn2)C1` (stereo not drawn), the AC50 was 7.08 µM [falling, full curve].
With `Cc1nnc(SCCn2c(N3CC(C)CC(C)C3)nc3c2c(=O)[nH]c(=O)n3C)s1` (stereo not drawn), the AC50 was 6.51 µM [rising, single point].
`CCn1nc(C)cc1C(=O)N1CCCC(C(=O)c2ccc(Oc3ccccc3)cc2)C1` (stereo not drawn): the concentration at half-maximal activity (AC50) was 12.6 µM [falling, partial curve, poor fit].
The figure for `CN1C(=O)c2ccc(NC(=O)c3c(F)c(F)c(F)c(F)c3F)cc2C1=O` is 0.58 µM [falling, partial curve, poor fit].
`COc1cc(C(=O)N/C(=C\c2cn(S(=O)(=O)N(C)C)c3ccccc23)C(=O)NCCCO)cc(OC)c1OC`: the half-maximal activity concentration (AC50) was 6.31 µM [rising, single point].

Values taken from PubChem BioAssay AID493014 (National Center for Advancing Translational Sciences (NCATS), 2011).
